Earlier results in US7767411B2, “Assay system for specific inhibitors of protein kinase C-related kinases” (Universitaetsklinikum Freiburg, priority 2004, dated 2010).
Some entries share one result that the patent states for a list of compounds. For at least one compound, name, drawing or mass did not settle the structure.

Molecular target: protein kinase C-related kinases (PRKs)
Conditions: known PRK inhibitors, low specificity; cited from earlier work

Cn1cc(C2=C(c3cn(CCCSC(=N)N)c4ccccc34)C(=O)NC2=O)c2ccccc21 [Ro31-8220]
IC50: > 10 nM
